# PubChem BioAssay AID504834 (National Center for Advancing Translational Sciences (NCATS), 2011)
# Among all 320,000 compounds or so, about 22,000 (6.9%) were called active. This list was built around the results that the source calls inconclusive (neither active nor inactive); the mix of calls is not that of the screen. Calls follow the shape of the dose curve; as a rule, active = well fitted inhibition curve with a large enough effect; inconclusive = small, poorly fitted or top-dose-only effect, or another doubt; inactive = no such curve, though single readings can be large or run the other way. Potencies of inconclusive entries are doubtful fits and often do not repeat.
# Assay: Primary qHTS for delayed death inhibitors of the malarial parasite plastid, 96 hour incubation
# Details: P. falciparum luciferase reporter growth; series mostly up to 28.7 µM; activity change, negative = inhibition: at the top concentration
# Procedure, shortened: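 Infected RBCs, 2% Hct / 0.05% parasitemia final; luciferase-reporter P. falciparum; cpd 96 h, 37 C, 5% CO2; luciferase detection reagent; luminescence.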
# % is scaled to controls: 0 for no effect and ±100 for the full control effect; potency is read from the fitted curve at half-maximal effect.
SMILES,Potency,"activity change, negative = inhibition"
CC(C)(C)C(=O)N1N=C(c2ccc(NS(C)(=O)=O)cc2)CC1c1cccs1 (configuration not stated),"inconclusive: 0.0738 µM [inhibitor, full curve, poor fit]",
Cn1c(=O)[nH]c(=O)c2c1nc(Br)n2CCSc1ncccn1,"inconclusive: 0.0329 µM [inhibitor, full curve, poor fit]",
O=C(Nc1ccnn1C1CCN(CCCc2ccccc2)CC1)c1ccccc1Cl,"inconclusive: 2.62 µM [inhibitor, single point]",
Cc1c(OCc2ccccc2)c(=O)ccn1Cc1ccccc1,"inconclusive: 13.1 µM [inhibitor, single point]",
Nc1c(-c2ccccc2)cnc2cc(-c3ccccc3)nn12,"inconclusive: 10.4 µM [inhibitor, single point]",
NS(=O)(=O)c1ccc(CCNC(=O)C2CCCN2S(=O)(=O)c2cccc3nsnc23)cc1 (configuration not stated),"inconclusive: 18.5 µM [inhibitor, single point]",
CC1CCCC(NC(=O)COC(=O)CSc2ccc3ccccc3c2)C1C (configuration not stated),,inactive: -25.1%
Cc1ccc(C)n1-c1ccc(N(C)C)cc1,"inconclusive: 16.5 µM [inhibitor, partial curve, poor fit]",
CCN1CCCC1CNC(=O)c1ccc2c(c1)NC(=O)/C(=C\c1ccc(OC)c(OC)c1)S2 (configuration not stated),"inconclusive: 18.5 µM [inhibitor, single point]",
CN(C)CCCNS(=O)(=O)c1ccc(N2CCN(Cc3ccc4c(c3)OCO4)CC2)c([N+](=O)[O-])c1,active: 9.28 µM,
CCc1nnc(N/N=C/c2cc(C)c(C)cc2C)n1N,"inconclusive: 18.5 µM [inhibitor, single point]",
c1ccc(N2CCCCC2)c(Nc2nc3ccccc3n3cnnc23)c1,,inactive: -26%
Cc1ccc(-c2nc3ccccc3[nH]2)cc1NC(=O)c1sc2ccccc2c1Cl,"inconclusive: 0.928 µM [inhibitor, partial curve, poor fit]",
Cc1ccc(-c2csc(NC(=O)c3ccc4c(=O)n5c(nc4c3)CCCCC5)n2)cc1,"inconclusive: 9.28 µM [inhibitor, single point]",
COc1ccc(C(=O)N2CCN(c3ccc([N+](=O)[O-])c(-n4nc(C)cc4C)c3)CC2)cc1,,inactive: -6.43%
CCC(CC)c1nnc(NC(=O)CN2C(=O)C3C4C=CC(C4)C3C2=O)s1 (configuration not stated),"inconclusive: 13.1 µM [inhibitor, partial curve, poor fit]",
C=CCNc1nc(SCC=C)nc2ccsc12,"inconclusive: 13.1 µM [inhibitor, single point]",
COc1ccc(Nc2ccc(S(=O)(=O)N3CCCCC3)cc2[N+](=O)[O-])cc1OC,active: 13.1 µM,
COC(=O)c1ccccc1NC(=O)c1cccc(NC(=O)C(C)C)c1,"inconclusive: 9.28 µM [inhibitor, single point]",
CC(CCc1ccccc1)NC(=O)COc1ccc(S(=O)(=O)N2CCOCC2)cc1[N+](=O)[O-] (configuration not stated),"inconclusive: 5.86 µM [inhibitor, partial curve]",
COc1ccccc1CNC(=O)C1CCC(CNS(=O)(=O)c2ccc(NC(C)=O)cc2)CC1 (configuration not stated),"inconclusive: 2.08 µM [inhibitor, full curve]",

# 8 structures from above, sorted by count of non-hydrogen atoms, descending:
SMILES,Potency,"activity change, negative = inhibition"
CC(CCc1ccccc1)NC(=O)COc1ccc(S(=O)(=O)N2CCOCC2)cc1[N+](=O)[O-] (configuration not stated),"inconclusive: 5.86 µM [inhibitor, partial curve]",
NS(=O)(=O)c1ccc(CCNC(=O)C2CCCN2S(=O)(=O)c2cccc3nsnc23)cc1 (configuration not stated),"inconclusive: 18.5 µM [inhibitor, single point]",
Cc1ccc(-c2csc(NC(=O)c3ccc4c(=O)n5c(nc4c3)CCCCC5)n2)cc1,"inconclusive: 9.28 µM [inhibitor, single point]",
CC1CCCC(NC(=O)COC(=O)CSc2ccc3ccccc3c2)C1C (configuration not stated),,inactive: -25.1%
CCC(CC)c1nnc(NC(=O)CN2C(=O)C3C4C=CC(C4)C3C2=O)s1 (configuration not stated),"inconclusive: 13.1 µM [inhibitor, partial curve, poor fit]",
Nc1c(-c2ccccc2)cnc2cc(-c3ccccc3)nn12,"inconclusive: 10.4 µM [inhibitor, single point]",
CCc1nnc(N/N=C/c2cc(C)c(C)cc2C)n1N,"inconclusive: 18.5 µM [inhibitor, single point]",
C=CCNc1nc(SCC=C)nc2ccsc12,"inconclusive: 13.1 µM [inhibitor, single point]",

# Remaining list, next part.

SMILES,Potency,"activity change, negative = inhibition"
O=C(CN(C1CCCCC1)S(=O)(=O)c1ccc(Cl)cc1)NCCCO,"inconclusive: 9.28 µM [inhibitor, partial curve, poor fit]",
Cc1cccc(C)c1N1C(=O)C2ON(c3ccccc3)C(c3ccncc3)C2C1=O (configuration not stated),"inconclusive: 0.828 µM [inhibitor, full curve, poor fit]",
CCOC(=O)C1=C(C)Nc2sc(C(=O)c3ccc(C)cc3)c(N)c2C1c1ccc(C(=O)OC)cc1 (configuration not stated),active: 5.22 µM,
Cc1ccc(O)c(-c2cc(C(=O)Nc3ccc(S(=O)(=O)Nc4nccc(C)n4)cc3)[nH]n2)c1,"inconclusive: 8.28 µM [inhibitor, single point]",
O=C(Nc1ccccc1)C1Cc2ccccc2CN1C(=O)c1ccco1 (configuration not stated),"inconclusive: 5.22 µM [inhibitor, partial curve, poor fit]",
CCOC(=O)c1c(N)n(CC(C)NC(=O)C2CC2)c2nc3ccccc3nc12 (configuration not stated),"inconclusive: 13.1 µM [inhibitor, partial curve, poor fit]",
CCOCc1c(C(=O)N2CCN(Cc3ccc(Br)s3)CC2)oc2ccccc12,"inconclusive: 18.5 µM [inhibitor, single point]",
Cc1ccc(S(=O)(=O)N2CCN(C(=O)COC(=O)c3cnc(C)cn3)CC2)c(C)c1,,inactive: 0.332%
Cc1ccc(NC(=O)C(c2ccccc2)N(C)C)cc1Cl (configuration not stated),"inconclusive: 5.22 µM [inhibitor, single point]",
COc1ccc(C(=O)NC(C)c2ccccc2)cc1Br (configuration not stated),,inactive: 47.4%
Cc1cccc(CCNC(=O)COc2cc(=O)n(C)c3ccccc23)c1,active: 10.4 µM,
COc1cc(N(Cc2ccccc2)Cc2ccccc2)c2ncn(C(C)C)c2c1,active: 7.38 µM,
O=C(/C=C/c1ccco1)NC(=S)Nc1nc(-c2ccc3ccccc3c2)cs1,"inconclusive: 18.5 µM [inhibitor, single point]",
CN(C)S(=O)(=O)c1cccc(C(=O)N=C2N=C3C=CC(Cl)=CN3Cc3ccccc32)c1,"inconclusive: 18.5 µM [inhibitor, single point]",
CC(C)(C)OC(=O)N/N=C\c1ccc[nH]1,,inactive: 24.6%
COc1cc(C(=O)N2CCCc3ccccc32)c([N+](=O)[O-])cc1OC,,inactive: 20.3%
O=C1c2ccsc2SCCN1Cc1cccc(Cl)c1,"inconclusive: 10.4 µM [inhibitor, single point]",
C=CCn1c(C)cc(C(=O)COC(=O)/C=C/c2c(C)nn(C3CCS(=O)(=O)C3)c2Cl)c1C (configuration not stated),"inconclusive: 9.28 µM [inhibitor, single point]",
COc1cccc(CC(=O)Nc2ccc(S(=O)(=O)Nc3nc(C)cc(C)n3)cc2)c1,,inactive: 20%
Cc1ccc(SCC(=O)Nc2cccc(C)c2)cc1,"inconclusive: 0.185 µM [inhibitor, partial curve, poor fit]",
COc1cc(/C=C/C(=O)OCC(=O)N2CCC(Cc3ccccc3)CC2)ccc1O,"inconclusive: 6.57 µM [inhibitor, partial curve, poor fit]",
